Residue numbers refer to the chain shown, from its start. Construct, isoform or probe ends are uncertain for at least one entry. Results from cells or extracts need not show a direct contact. For some assays here: No signal at the amounts used counts as a negative. Where a protein sequence is shown, tags need not be part of it.
Legend:
[1] = biological target: T1, HA-Hand1-AA (T107A/S109A) (Mus musculus) (UniProt Q64279); assay: EMSA; details: nuclear extract; EMSA: Promega gel shift kit, buffer not given; protein in an extract; protein details: HA (N-term)
T1 sequence (looked up, limits assumed): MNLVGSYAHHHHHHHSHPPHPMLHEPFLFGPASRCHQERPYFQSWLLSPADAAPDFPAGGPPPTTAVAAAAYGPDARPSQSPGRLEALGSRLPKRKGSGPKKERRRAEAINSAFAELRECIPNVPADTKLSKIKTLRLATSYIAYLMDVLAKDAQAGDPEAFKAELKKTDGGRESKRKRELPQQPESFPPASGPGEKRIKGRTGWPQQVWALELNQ

[2] = biological target: T2, HA-Hand1-DD (T107D/S109D) (Mus musculus) (UniProt Q64279); assay: EMSA; details: nuclear extract; EMSA: Promega gel shift kit, buffer not given; protein in an extract; protein details: HA (N-term)
T2 sequence (looked up, limits assumed): T1 sequence (looked up, limits assumed) with A107D, A109D

## ATTGGCGTCTGGCATTGCATTGGCGTCTGGCATTGCATTGGCGTCTGGCATT / GATCTAATGCCAGACGCCAATGCAATGCCAGACGCCAATGCAATGCCAGACGCCAATGAGCT [Th1 D-box probe (3x D-box)]
[1]
  binding result: binds
[2]
  binding result: no binding
